According to PubChem BioAssay AID2685 (National Center for Advancing Translational Sciences (NCATS), 2010):
The other results are listed elsewhere or left out. Shown are side measurements of this screen, not its main read-out; they come without a call. Most of these compounds were active or inconclusive in the main read-out, so they are no random draw. Words in brackets tell the shape of the fitted curve; partial curves, single points and poor fits give uncertain potencies.

Assay: qHTS Assay for Lipid Storage Modulators in Drosophila S3 Cells;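 for cell number change: cells counted by Cell Tracker Red CMTPX staining in the red channel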
Details: BODIPY lipid droplet fluorescence, 18-24 h; for cell number change: measured here: cell count max response, cells fed with added oleic acid
Procedure, shortened: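 Laser-scanning cytometry quantifies lipid droplet accumulation (500–530 nm total intensity; droplet/cell object ratio) in oleic acid-fed (400 uM added) Drosophila S3 cells treated with a concentration series. 20 uM Triacsin C defined 100% inhibition.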

[1] = measured here: lipid fluorescence (Fed channel) AC50, cells fed with added oleic acid
[2] = measured here: cell number channel AC50, cells fed with added oleic acid

Structure (SMILES) | cell number change [%] | AC50 [1] | AC50 [2]
COc1ccc(NC(=O)COC(=O)C2CC(=O)N(CCc3ccc(OC)c(OC)c3)C2)cc1Cl (configuration not stated) | 4.15 | 0.00461 µM [rising, full curve, poor fit] | 
CCOC(=O)c1cc(-c2ccccc2)sc1NC(=O)C(C)OC(=O)c1cccnc1Cl (configuration not stated) | 17.7 |  | 0.082 µM [rising, full curve, poor fit]
O=C(Nc1ccc(N2CCN(C(=O)c3ccccc3)CC2)cc1)c1ccc2c(c1)OCCO2 | -35.8 |  | 9.2 µM [falling, partial curve, poor fit]
O=C(O)CCN(Cc1ccccc1)S(=O)(=O)c1c(Cl)cccc1Cl | 22 | 0.00461 µM [rising, full curve, poor fit] | 
O=C(O)c1cc(-c2ccccc2)n(-c2ccc(Cl)cc2)n1 | -46.7 | 29.1 µM [falling, single point] | 29.1 µM [falling, single point]
CCOCCCn1c(SCC(=O)Nc2cccc(OC)c2)nc2ccccc2c1=O | -14.2 | 29.1 µM [falling, single point] | 
O=[N+]([O-])c1ccc(Oc2ccc(S(=O)(=O)N3CCOCC3)cc2)cc1 | -16.2 | 29.1 µM [falling, partial curve, poor fit] | 
CCN(CC)C(=O)c1ccc(COc2ccc(Cl)c(C)c2)o1 | -18.2 | 29.1 µM [falling, single point] | 
O=C(CN1CCN(CC(=O)Nc2ccccn2)CC1)Nc1ccccn1 |  | 32.6 µM [falling, partial curve] | 
COC(=O)Nc1ccc(S(=O)(=O)N2CCCc3ccccc32)cc1 |  |  | 6.51 µM [rising, single point]
CC(=O)c1cn(CC(=O)Nc2ccccc2C(F)(F)F)c2ccccc12 | -8.5 | 3.66 µM [rising, full curve] | 
Cc1c(N2C(=O)c3ccc(Br)cc3C2=O)c(=O)n(-c2ccccc2)n1C |  | 0.184 µM [rising, full curve, poor fit] | 
Cc1ccc(/C=C/C(=O)O)cc1S(=O)(=O)NC1CCS(=O)(=O)C1 (configuration not stated) | 30.7 |  | 
Cc1nnc(SCC2=C(C(=O)O)N3C(=O)C(NC(=O)Cn4nc(C(F)F)c(Cl)c4C)C3SC2)s1 (configuration not stated) | -1.25 | 0.0731 µM [falling, full curve, poor fit] | 
CCn1nccc1C(=O)Nc1ccc(C(=O)OC(C)C)cc1 | 2.19 | 18.4 µM [rising, single point] | 
O=C(Nc1cccc(S(=O)(=O)Nc2ccccc2Cl)c1)c1ccc(Cl)nc1 | 1.71 | 2.06 µM [rising, partial curve] | 

Structure (SMILES) | cell number change [%] | AC50 [1] | AC50 [2]
Cc1nc(NC(C)c2ccccc2)sc1C(=O)Nc1ccccc1 (configuration not stated) | -17.4 | 0.00517 µM [falling, full curve, poor fit] | 
COc1ccc(-c2cc(=O)oc3c(C)c(OCc4nn[nH]n4)ccc23)cc1 | 10.5 | 3.26 µM [falling, partial curve, poor fit] | 
Cc1cc(N)ccc1-n1c(C)ccc1C | 30.9 | 0.116 µM [rising, single point] | 4.11 µM [rising, full curve]
COc1cccc(C2=NOC(C(=O)Nc3cccnc3)C2)c1 (configuration not stated) | -13.5 |  | 
COCCCNC(=O)CCn1c(=O)c2ccccc2n(CC(=O)Nc2c(C)cccc2C)c1=O | 2.81 | 2.59 µM [rising, partial curve] | 
O=C(NCCCN1CCOCC1)c1sc2cc(F)ccc2c1Cl | 23.2 |  | 
CO/N=C\c1cc(C(=O)c2ccc(Cl)cc2Cl)cn1C | 24.9 | 20.6 µM [rising, single point] | 
CCN=c1sc(C(=O)OC)cc(=O)n1CC |  | 6.51 µM [falling, partial curve, poor fit] | 
COc1cc(-n2c(=O)c3ccccc3n(CC(=O)OCc3ccccc3)c2=O)cc(OC)c1OC | -3.94 | 5.8 µM [rising, single point] | 
O=C(COC(=O)c1cccnc1Cl)NCCCc1ccccc1 | -34.7 | 20.6 µM [falling, single point] | 20.6 µM [falling, single point]
COc1ccc(CN(C(=S)Nc2ccccc2)C2CC(=O)N(c3ccc(F)cc3)C2=O)cc1 (configuration not stated) | -10.1 |  | 0.0326 µM [falling, full curve, poor fit]
CN1CCN(c2ccc(NC(=O)Cc3ccccc3)cc2)CC1 | 24.4 |  | 
CC1=C(C(=O)OC2CCCCC2)C(c2cccs2)n2c(nc3ccccc32)N1 (configuration not stated) | 0.842 | 20.6 µM [rising, single point] | 
Cc1c(C(=O)NCc2ccco2)oc2ccccc12 | 2.61 | 6.51 µM [falling, single point] | 
O=C(Cn1nc(C(=O)O)c2ccccc2c1=O)Nc1ccc(F)cc1 | 18.1 | 29.1 µM [falling, single point] | 

Entries of single compounds as entered above.
Cc1nc(NC(C)c2ccccc2)sc1C(=O)Nc1ccccc1 (configuration not stated) reads cell number change [%]: -17.4; AC50 [1]: 0.00517 µM [falling, full curve, poor fit]
COc1cc(-n2c(=O)c3ccccc3n(CC(=O)OCc3ccccc3)c2=O)cc(OC)c1OC reads cell number change [%]: -3.94; AC50 [1]: 5.8 µM [rising, single point]
